# Screening data

From PubChem BioAssay record AID1508623 (NCATS, 2021).

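Change in HTT-promoter-driven luminescence in engineered HEK293 reporter cells after a 24 h treatment, measured at one concentration. Percent change in reporter signal versus vehicle (0%) down to no light (-100%); more negative values mean stronger inhibition of promoter activity.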

Values are in %. Common to all entries: at 57.5 µM (top of the series). Only part of the assay is listed here, not a random draw.

compound: O=C(Nc1cccc(Cl)c1)C1CCN(S(=O)(=O)Cc2ccccc2)CC1
activity change (%): -13.74

compound: COc1cc2oc(=O)c(CC(=O)NCCc3ccccc3)c(C)c2cc1Cl
activity change (%): -2.392

compound: O=C(NCCSCc1cccc(Cl)c1)C1CCN(S(=O)(=O)Cc2ccccc2)CC1
activity change (%): -13.69

compound: COc1ccc(C2(Nc3cccc(F)c3)C(=O)c3ccccc3C2=O)cc1
activity change (%): -14.56

compound: CCCOc1ccc(C2C(=O)N(C3CCCCCC3)CC(=O)N2CCC2=CCCCC2)cc1OC (stereo unspecified)
activity change (%): -12.77

compound: CC(C)Oc1ccc(CNC(=O)c2cnc3sc(N4CCCCC4)nn3c2=O)cc1
activity change (%): 2.933

compound: COc1ccc(CCNC(=O)c2cnc3sc(N4CCC(C)CC4)nn3c2=O)cc1OC
activity change (%): -10.69

compound: CCc1ccc(S(=O)(=O)Nc2cccc(-c3ccc(N4CCOCC4)nn3)c2)cc1
activity change (%): -5.517

compound: CC(=O)c1ccc(S(=O)(=O)Nc2cccc(-c3ccc(N4CCCCCC4)nn3)c2)cc1
activity change (%): 1.995

compound: Cn1c(=O)[nH]c(=O)c2c1nc(NCCO)n2CC(O)COc1ccccc1 (stereo unspecified)
activity change (%): -2.572

compound: CCc1ccc(NC(=O)CC2C(=O)N(c3cccc(C)c3)C(=O)N2Cc2ccc(F)cc2)cc1 (stereo unspecified)
activity change (%): -48.26

compound: CCCOc1ccc(NC(=O)CC2C(=O)N(c3cccc(OC)c3)C(=O)N2Cc2cccs2)cc1 (stereo unspecified)
activity change (%): -24.24

compound: CCc1c(C)c2cc3c(c(C)c2oc1=O)OCN(CCc1ccc(OC)c(OC)c1)C3
activity change (%): -34.96

compound: COc1ccccc1NC(=O)C1=C(C)Nc2ncnn2C1c1ccccn1 (stereo unspecified)
activity change (%): -14.68

compound: COc1ccc(C2C(=O)N(C3CCCCCC3)CC(=O)N2CCc2ccc(OC)c(OC)c2)cc1 (stereo unspecified)
activity change (%): -15.47

compound: CC(=O)c1ccc(NC(=O)c2cc(-c3ccc4c(c3)OCO4)on2)cc1
activity change (%): -6.386

compound: C=C(C)Cn1c(SCC(=O)c2ccc(OC)cc2)nc2sc3c(c2c1=O)CCCC3
activity change (%): 6.972

compound: CCOc1ccccc1CNC(=O)c1cnn(-c2ccc(C)cc2)c1-n1cccc1
activity change (%): -53.09

compound: Cc1nc2ccn(Cc3ccco3)c(=O)c2cc1C(=O)NCc1ccc(Cl)cc1
activity change (%): -43.82

compound: CCOc1cc(CNC(=O)Cn2ncn3c(cc4cc(F)ccc43)c2=O)cc(OCC)c1OCC
activity change (%): -12.08

compound: CCCCN1C(=O)CN(C2CCCCCC2)C(=O)C1c1ccc(OCCC)c(OC)c1 (stereo unspecified)
activity change (%): -38.38

compound: COc1ccc2c(c1)cc1c(=O)n(CC(=O)NCCCc3ccccc3)nc(C)n12
activity change (%): -16.64

compound: CCOC(=O)c1c(-c2ccccc2)oc2ccc(N(C(C)=O)S(=O)(=O)c3ccc(C)cc3)cc12
activity change (%): -13.63

compound: CN(C)S(=O)(=O)N1CCC(n2cnc3cccnc32)CC1
activity change (%): -3.13

compound: COc1cc(-c2nnc(SCC(=O)NC(C)C)o2)cc(OC)c1OC
activity change (%): -1.979

compound: COc1ccccc1-c1cc(C(=O)Nc2c(C)nn(Cc3ccc(Cl)cc3)c2C)no1
activity change (%): -85.2

compound: Cc1cc(Cl)ccc1-n1c(CCC(=O)O)ccc1-c1cccs1
activity change (%): -10.94

compound: O=S(=O)(Nc1cccc(-c2ccc(N3CCCCC3)nn2)c1)c1cccs1
activity change (%): 26.03

compound: Cc1ccc(NC(c2cccc(Cl)c2)c2nnc(-c3ccccc3)o2)cc1F (stereo unspecified)
activity change (%): -39.87

compound: CC(C)N(Cc1ccccc1)C(=O)c1nc(-c2ccc(Cl)cc2)n2c1CCCCC2
activity change (%): -46.48

compound: COC(=O)c1cc2oc3ccccc3c2n1CC(=O)Nc1ccc(OC)c(OC)c1OC
activity change (%): -16.69

compound: Fc1ccccc1C(NCCc1ccc(Cl)cc1)c1nnc(-c2ccccc2)o1 (stereo unspecified)
activity change (%): -33.9

compound: CCOC(=O)c1ccc(NC(=O)CC2C(=O)N(c3ccc(F)cc3)C(=O)N2Cc2cccnc2)cc1 (stereo unspecified)
activity change (%): -21.7

compound: CCOc1ccc(NC(=O)CC2C(=O)N(c3cccc(C)c3)C(=O)N2Cc2ccco2)cc1 (stereo unspecified)
activity change (%): -27.01

compound: Cc1ccc(-n2ncc(C(=O)NCCCN3CCN(c4cccc(Cl)c4)CC3)c2-n2cccc2)cc1
activity change (%): -34.01

compound: CCOC(=O)c1cccc(NC(=O)CCc2c(C)nn(-c3ccc(N4CCCC4)nn3)c2C)c1
activity change (%): -22.24

compound: CCc1cccc(NS(=O)(=O)c2ccc3c(c2)N(CC(=O)OC)C(=O)CS3)c1
activity change (%): -36.49

compound: COc1ccc(S(=O)(=O)Nc2cccc(-c3ccc(N4CCCC4)nn3)c2)c(OC)c1
activity change (%): -13.53

compound: COc1ccc(CCNC(=O)Cc2c(C)c3cc(OC)c(OC)cc3oc2=O)cc1
activity change (%): -20.67

compound: COc1cc(NC(=O)c2cc(-c3ccc4c(c3)OCO4)on2)cc(OC)c1OC
activity change (%): -15.04

compound: COc1cccc(CNC(=O)CC(c2ccc(F)cc2)N2Cc3ccccc3C2=O)c1 (stereo unspecified)
activity change (%): -30.58

compound: Clc1ccc(CCNC(c2ccc(Cl)cc2)c2nnc(-c3ccccc3)o2)cc1 (stereo unspecified)
activity change (%): -35.73

compound: COc1ccc(S(=O)(=O)Nc2cccc(-c3ccc(N4CCOCC4)nn3)c2)cc1F
activity change (%): 1.351

compound: Cc1cccc(CS(=O)(=O)CC2Nc3ccc(C(=O)NCc4ccccc4Cl)cc3NC2=O)c1 (stereo unspecified)
activity change (%): -43.81

compound: COc1ccc(Cl)cc1NC(=O)c1noc2c1CCc1ccccc1-2
activity change (%): -3.194

compound: COc1ccccc1N1CCN(C(=O)c2oc3ccccc3c2N)CC1
activity change (%): -32.83

compound: CCc1c(C)c2ccc(O)c(CN3CCN(c4ccc(OC)cc4)CC3)c2oc1=O
activity change (%): -22.7

compound: CCc1ccccc1NS(=O)(=O)c1ccc2oc(=O)c3ncn(C)c3c2c1
activity change (%): -14.51

compound: CCc1ccc(S(=O)(=O)Nc2ccc3oc(C)c(C(=O)OCCOC)c3c2)cc1
activity change (%): -41.6

compound: Cc1nc2ccn(Cc3ccco3)c(=O)c2cc1C(=O)N1CCN(c2ccc(F)cc2)CC1
activity change (%): -30.04

compound: Cc1ccc2oc(-c3ccc(Cl)c(NC(=O)c4cc5ccccc5o4)c3)nc2c1
activity change (%): 10.56

compound: CS(=O)(=O)N1CCC(N2CCN(Cc3ccc(F)cc3)C(=O)C2=O)CC1
activity change (%): -2.946

compound: C=CCc1ccccc1OCCSc1nc(-c2ccc(C(C)(C)C)cc2)nc2cc(=O)[nH]n12
activity change (%): -5.678

compound: CCCOC(=O)c1c(NC(=O)C2c3ccccc3Oc3ccccc32)sc2c1CCCC2
activity change (%): -17.19

compound: Cc1oc2ccc(O)c(CN3CCOCC3)c2c1C(=O)Nc1ccc(C(C)C)cc1
activity change (%): -32.31

compound: COc1ccc(C(CC(=O)Nc2cccc(C)c2C)N2Cc3ccccc3C2=O)cc1 (stereo unspecified)
activity change (%): -40.72

compound: CCOc1ccc(C2C(=O)N(C3CCCCCC3)CC(=O)N2Cc2ccccc2)cc1OC (stereo unspecified)
activity change (%): -24.12